# Test results taken from article PMC5668017.
# No constants are given. Whether binding was seen depends on the method and setting. In cells and extracts the contact can be indirect. Some entries that bind do so weakly or less than the wild type.
# B1: activating transcription factor 2 (ATF2), P15336 1-505 (protein)
# chain: MKFKLHVNSARQYKDLWNMSDDKPFLCTAPGCGQRFTNEDHLAVHKHKHEMTLKFGPARNDSVIVADQTPTPTRFLKNCEEVGLFNELASPFENEFKKASEDDIKKMPLDLSPLATPIIRSKIEEPSVVETTHQDSPLPHPESTTSDEKEVPLAQTAQPTSAIVRPASLQVPNVLLTSSDSSVIIQQAVPSPTSSTVITQAPSSNRPIVPVPGPFPLLLHLPNGQTMPVAIPASITSSNVHVPAAVPLVRPVTMVPSVPGIPGPSSPQPVQSEAKMRLKAALTQQHPPVTNGDTVKGHGSGLVRTQSEESRPQSLQQPATSTTETPASPAHTTPQTQSTSGRRRRAANEDPDEKRRKFLERNRAAASRCRQKRKVWVQSLEKKAEDLSSLNGQLQSEVTLLRNEVAQLKQLLLAHKDCPVTAMQKKSGYHTADKDDSSEDISVPSSPHTEAIQHSSVSTSNGVSSTSKAEAVATSVLTQMADQSTEPALSQIVMAPSSQSQPSGS
# Key:
# [1] = target: T1, c-Jun (human (endogenous in Hep-2)), P05412; assay: co-IP; lysates (RIPA buffer) of cultured Hep-2 and Hep-2/R cells treated with 10 uM cisplatin, with or without transfection of miR-26b and ATF2 plasmid; c-Jun antibody at 4 °C overnight, protein G agarose beads, western blot; details: remark: other sources report otherwise
# T1 chain: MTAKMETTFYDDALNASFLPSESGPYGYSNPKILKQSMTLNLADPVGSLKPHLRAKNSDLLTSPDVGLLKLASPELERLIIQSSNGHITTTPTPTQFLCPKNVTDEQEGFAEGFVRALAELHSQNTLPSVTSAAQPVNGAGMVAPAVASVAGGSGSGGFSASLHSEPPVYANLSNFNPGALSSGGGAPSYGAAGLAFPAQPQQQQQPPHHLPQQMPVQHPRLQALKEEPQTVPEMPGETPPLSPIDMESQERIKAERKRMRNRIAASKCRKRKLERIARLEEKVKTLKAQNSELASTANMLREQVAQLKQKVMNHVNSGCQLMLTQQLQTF
# [2] = target: T1, c-Jun (human (endogenous in Hep-2)), …; assay: co-IP; cells from Hep-2/R xenografts (LV-control or LV-miR-26b) of nude mice treated with cisplatin 2 mg/kg; details: remark: other sources report otherwise
binder,measurement,setting,value
B1,binding,[1],binds
same,binding,[2],binds
